{"source": "PubChem BioAssay AID2685", "about": "(National Center for Advancing Translational Sciences (NCATS), 2010)", "experiment": "qHTS Assay for Lipid Storage Modulators in Drosophila S3 Cells;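 as to cell number change: cells counted by Cell Tracker Red CMTPX staining in the red channel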", "conditions": "BODIPY lipid droplet fluorescence, 18-24 h; for cell number change: measured here: cell count max response, cells fed with added oleic acid", "procedure,_shortened": "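Laser-scanning cytometry quantifies lipid droplet accumulation (500–530 nm total intensity; droplet/cell object ratio) in oleic acid-fed (400 uM added) Drosophila S3 cells treated with a concentration series. 20 uM Triacsin C defined 100% inhibition.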", "key": {"[1]": {"conditions": "measured here: lipid fluorescence (Fed channel) AC50, cells fed with added oleic acid"}, "[2]": {"conditions": "measured here: cell number channel AC50, cells fed with added oleic acid"}}, "note": "This is one part of the list. These are further read-outs of the screen, such as a control signal, another cell line or another target. No call is given for them. Compounds called inactive in the main read-out are mostly missing here. The note in brackets gives the kind of curve behind each potency; many fits are weak.", "data": [{"smiles": "CN(C(=O)Oc1cccc2cccnc12)c1ccccc1", "values": [{"measurement": "AC50", "setting": "[1]", "value": "0.58 µM [rising, single point]"}]}, {"smiles": "N#C/C=C/C#N", "values": [{"measurement": "cell number change", "value": -36.7, "unit": "%"}, {"measurement": "AC50", "setting": "[2]", "value": "29.1 µM [falling, single point]"}, {"measurement": "AC50", "setting": "[1]", "value": "18.4 µM [rising, single point]"}]}, {"smiles": "CCOc1c(Cl)cc(CNCCc2c[nH]c3ccccc23)cc1OC", "values": [{"measurement": "cell number change", "value": -33.3, "unit": "%"}, {"measurement": "AC50", "setting": "[2]", "value": "25.9 µM [falling, single point]"}, {"measurement": "AC50", "setting": "[1]", "value": "20.6 µM [falling, single point]"}]}, {"smiles": "CC(Cc1cccs1)NCc1ccc(Cl)cc1", "note": "(centres undefined)", "values": [{"measurement": "cell number change", "value": 48.6, "unit": "%"}, {"measurement": "AC50", "setting": "[2]", "value": "29.1 µM [rising, single point]"}, {"measurement": "AC50", "setting": "[1]", "value": "29.1 µM [rising, single point]"}]}, {"smiles": "Cc1ccc(N2CCN(CCc3ccccc3)CC2)cc1", "values": [{"measurement": "cell number change", "value": -41.6, "unit": "%"}, {"measurement": "AC50", "setting": "[2]", "value": "29.1 µM [falling, single point]"}, {"measurement": "AC50", "setting": "[1]", "value": "0.116 µM [falling, full curve, poor fit]"}]}, {"smiles": "O=C1NC(=O)N(Cc2ccccc2)C(=O)/C1=C\\C=C\\c1ccco1", "values": [{"measurement": "cell number change", "value": -36.8, "unit": "%"}, {"measurement": "AC50", "setting": "[2]", "value": "23.1 µM [falling, single point]"}]}, {"smiles": "CCN(CC)c1ccc(N=Cc2c(O)n(CCC3=CCCCC3)c(=O)[nH]c2=O)cc1", "values": [{"measurement": "cell number change", "value": 10.5, "unit": "%"}, {"measurement": "AC50", "setting": "[1]", "value": "0.517 µM [rising, full curve]"}]}, {"smiles": "COC(=O)c1ccc(N2CCN(C)CC2)c([N+](=O)[O-])c1", "values": [{"measurement": "cell number change", "value": 17.5, "unit": "%"}]}, {"smiles": "COC(=O)C1=C(c2ccc(OCc3ccccc3)cc2)C[C@@H]2CC[C@H]1N2C(=O)NCc1cccc(C(F)(F)F)c1", "values": [{"measurement": "cell number change", "value": -7.18, "unit": "%"}, {"measurement": "AC50", "setting": "[1]", "value": "0.092 µM [falling, full curve, poor fit]"}]}, {"smiles": "O=C(O)C(Cc1cnc[nH]1)NS(=O)(=O)c1ccc(Br)cc1", "note": "(centres undefined)", "values": [{"measurement": "cell number change", "value": 15, "unit": "%"}, {"measurement": "AC50", "setting": "[1]", "value": "9.2 µM [falling, single point]"}]}, {"smiles": "NC(N)=N/N=C/c1cn(-c2ccccc2)nc1-c1cccs1", "values": [{"measurement": "cell number change", "value": -71.5, "unit": "%"}, {"measurement": "AC50", "setting": "[2]", "value": "14.6 µM [falling, partial curve]"}, {"measurement": "AC50", "setting": "[1]", "value": "18.4 µM [falling, partial curve]"}]}, {"smiles": "CCC/C=N/O", "values": [{"measurement": "cell number change", "value": -3.62, "unit": "%"}]}, {"smiles": "CN1CCCN(c2ccc([N+](=O)[O-])nc2)CC1", "values": [{"measurement": "cell number change", "value": 9.68, "unit": "%"}, {"measurement": "AC50", "setting": "[1]", "value": "0.58 µM [rising, single point]"}]}, {"smiles": "COc1ccc(CN2CCN(C(=O)COc3cccc(C)c3)CC2)c(OC)c1", "values": [{"measurement": "cell number change", "value": 24.7, "unit": "%"}, {"measurement": "AC50", "setting": "[1]", "value": "2.59 µM [rising, partial curve]"}]}, {"smiles": "CCCCn1c(O)c(C(C)=Nc2ccc(C(=O)O)cc2)c(=O)[nH]c1=O", "values": [{"measurement": "cell number change", "value": -10.9, "unit": "%"}, {"measurement": "AC50", "setting": "[1]", "value": "2.31 µM [falling, partial curve, poor fit]"}]}, {"smiles": "Cc1ccc(C(=O)c2cc(Br)ccc2N)cc1", "values": [{"measurement": "cell number change", "value": -30.5, "unit": "%"}]}, {"smiles": "N#CC(C#N)=NNc1ccc(-n2ccc(C(F)(F)F)n2)cc1", "values": [{"measurement": "cell number change", "value": -13.6, "unit": "%"}, {"measurement": "AC50", "setting": "[2]", "value": "0.231 µM [falling, partial curve]"}, {"measurement": "AC50", "setting": "[1]", "value": "7.31 µM [falling, partial curve]"}]}, {"smiles": "O=C1NC(=O)N(c2cccc(Cl)c2)C(=O)/C1=C\\c1ccc(Sc2nc3ccccc3[nH]2)o1", "values": [{"measurement": "cell number change", "value": -96, "unit": "%"}, {"measurement": "AC50", "setting": "[2]", "value": "29.1 µM [falling, single point]"}]}, {"smiles": "O=C(Nc1cccc(OC(=O)N2CCCCC2)c1)N1CCOCC1", "values": [{"measurement": "cell number change", "value": 48.1, "unit": "%"}, {"measurement": "AC50", "setting": "[2]", "value": "0.231 µM [rising, full curve, poor fit]"}]}, {"smiles": "CC(=O)c1c(O)n(C)c(=S)n(-c2ccccc2)c1=O", "values": [{"measurement": "cell number change", "value": -6.14, "unit": "%"}, {"measurement": "AC50", "setting": "[1]", "value": "6.51 µM [falling, single point]"}]}, {"smiles": "CCCNC(=O)Cn1cnc2sc(C(=O)N3CCC4(CC3)OCCO4)c(C)c2c1=O", "values": [{"measurement": "cell number change", "value": -13, "unit": "%"}, {"measurement": "AC50", "setting": "[1]", "value": "2.91 µM [rising, partial curve, poor fit]"}]}, {"smiles": "COC(=O)C1=C(c2ccc(C(C)=O)cc2)C[C@@H]2CC[C@H]1N2C(=O)NCCO", "values": [{"measurement": "cell number change", "value": 21.7, "unit": "%"}, {"measurement": "AC50", "setting": "[2]", "value": "1.16 µM [falling, single point]"}, {"measurement": "AC50", "setting": "[1]", "value": "0.116 µM [rising, single point]"}]}, {"smiles": "COCCOC(=O)c1c(N)n(Cc2ccco2)c2nc3ccccc3nc12", "values": [{"measurement": "cell number change", "value": -54.5, "unit": "%"}, {"measurement": "AC50", "setting": "[2]", "value": "32.6 µM [falling, partial curve]"}, {"measurement": "AC50", "setting": "[1]", "value": "14.6 µM [falling, partial curve, poor fit]"}]}, {"smiles": "C=CCn1c(O)c(C=NCCCOc2ccc(CC)cc2)c(=O)[nH]c1=S", "values": [{"measurement": "cell number change", "value": -45.6, "unit": "%"}, {"measurement": "AC50", "setting": "[2]", "value": "14.6 µM [falling, partial curve]"}, {"measurement": "AC50", "setting": "[1]", "value": "18.4 µM [falling, partial curve]"}]}, {"smiles": "CC(=O)Nc1ccccc1C(=O)OCc1ccc(C(=O)c2ccccc2)cc1", "values": [{"measurement": "cell number change", "value": -12.4, "unit": "%"}, {"measurement": "AC50", "setting": "[1]", "value": "18.4 µM [falling, single point]"}]}, {"smiles": "O=C(CCCN1CCC(n2c(=O)[nH]c3ccccc32)CC1)c1ccc(F)cc1", "values": [{"measurement": "cell number change", "value": 28, "unit": "%"}, {"measurement": "AC50", "setting": "[1]", "value": "0.92 µM [rising, full curve, poor fit]"}]}, {"smiles": "COC(=O)C1=C(c2ccc(OC(F)(F)F)cc2)C[C@@H]2CC[C@H]1N2C(=O)NC1CC1", "values": [{"measurement": "cell number change", "value": 4.21, "unit": "%"}, {"measurement": "AC50", "setting": "[1]", "value": "0.00411 µM [rising, full curve, poor fit]"}]}, {"smiles": "C#CC1(OC(=O)c2ccccc2)CC(C)N(C)CC1C", "note": "(centres undefined)", "values": [{"measurement": "cell number change", "value": 0.265, "unit": "%"}, {"measurement": "AC50", "setting": "[1]", "value": "25.9 µM [rising, single point]"}]}, {"smiles": "COC(=NC1CCCCC1)C(O)c1c[nH]c2ccccc12", "note": "(centres undefined)", "values": [{"measurement": "cell number change", "value": -4.94, "unit": "%"}, {"measurement": "AC50", "setting": "[1]", "value": "0.259 µM [falling, full curve]"}]}, {"smiles": "COC(=O)CC1(CC(=O)OC)C(=O)NC(=O)NC1=O", "values": [{"measurement": "cell number change", "value": 2.42, "unit": "%"}]}, {"smiles": "CCN1C(=O)C(=Cc2ccc(C)s2)C(=O)N(CC)C1=S", "values": [{"measurement": "cell number change", "value": -2.41, "unit": "%"}, {"measurement": "AC50", "setting": "[1]", "value": "0.651 µM [falling, full curve, poor fit]"}]}, {"smiles": "COc1ccc(-c2nn(CCC#N)cc2C(=O)Nc2ccc(C(C)=O)cc2)cc1[N+](=O)[O-]", "values": [{"measurement": "cell number change", "value": -22.6, "unit": "%"}, {"measurement": "AC50", "setting": "[1]", "value": "0.58 µM [rising, single point]"}]}, {"smiles": "CC(=O)Nc1ccc2c(c1)CC1(C(=O)N(C)C(=O)N(C)C1=O)C1CCCN21", "note": "(centres undefined)", "values": [{"measurement": "AC50", "setting": "[1]", "value": "6.51 µM [falling, single point]"}]}, {"smiles": "CC1CCN(S(=O)(=O)c2ccc(NN=C(C#N)C#N)cc2)CC1", "values": [{"measurement": "cell number change", "value": -6.09, "unit": "%"}, {"measurement": "AC50", "setting": "[1]", "value": "0.00517 µM [rising, full curve, poor fit]"}]}, {"smiles": "Cc1ccc(Cn2nnnc2CN2CCC(n3nnc4ccccc43)CC2)cc1", "values": [{"measurement": "cell number change", "value": 29.6, "unit": "%"}, {"measurement": "AC50", "setting": "[1]", "value": "2.31 µM [rising, partial curve, poor fit]"}]}, {"smiles": "CCN(CC)c1ccc(CN2CC=C(c3ccc(F)cc3)CC2)cc1", "values": [{"measurement": "cell number change", "value": -56.9, "unit": "%"}, {"measurement": "AC50", "setting": "[2]", "value": "29.1 µM [falling, single point]"}, {"measurement": "AC50", "setting": "[1]", "value": "29.1 µM [falling, single point]"}]}, {"smiles": "Clc1ccc(COC(Cn2ccnc2)c2ccc(Cl)cc2Cl)c(Cl)c1", "note": "(centres undefined)", "values": [{"measurement": "cell number change", "value": -81, "unit": "%"}, {"measurement": "AC50", "setting": "[2]", "value": "16.4 µM [falling, single point]"}, {"measurement": "AC50", "setting": "[1]", "value": "18.4 µM [falling, single point]"}]}]}
